According to patent US20250051825A1, “Ex Vivo Production of Compounds of Interest” (Nederlandse Organisatie voor …, priority 2021, published 2025):

Assay: Atorvastatin normothermic machine perfusion of ex vivo porcine liver, perfusate and bile analysed by LC/MS
Type: in vitro ADME, Sus scrofa domesticus
Conditions: pig, bile, other: slow bolus to the portal vein; slow bolus of 0.104 mg over 10 minutes to portal vein; mean±SD (n=4)
Procedure: Porcine Livers. Livers were obtained from a local slaughterhouse (Sus scrofa domesticus, approximately at the age of 6 months, with body weight between 100 and 120 kg). Pigs were sacrificed by a standardized procedure of electrocution followed by exsanguination. Thereafter, 3 L of blood was collected in a container supplemented with 25,000 IU of heparin. All abdominal organs were dissected outside the animal and collected. Within 20 minutes after termination, the vena porta was cannulated and directly flushed by gravity with 3 L of NaCl 0.9% (Baxter BV, Utrecht, The Netherlands) supplemented with 5000 IU of heparin followed by 2 L of ice-cold histidine-tryptophan-ketoglutarate solution (Plegistore, Warszawa, Poland). In the meantime, the arteria hepatica was dissected, cannulated, and subsequently flushed with histidine-tryptophan-ketoglutarate. At the laboratory, side branches were ligated, and the common bile duct was cannulated, whereas the ductus cysticus, derived from the gall bladder, was ligated. Normothermic Machine Perfusion. […] Drug concentrations in perfusate, bile and liver biopsies were determined by LC-MS/MS analysis as described below. The concentration of atorvastatin and its metabolites in perfusate and bile was quantified using LC/MS. […] Samples were then mixed with 50 μL of water, vortexed and injected in to LC/MS for quantification. […]

Tmax: 35 min
Compound: CC(C)c1c(C(=O)Nc2ccccc2)c(-c2ccccc2)c(-c2ccc(F)cc2)n1CC[C@@H](O)C[C@@H](O)CC(=O)O [atorvastatin, Atorvastatin, reference compound]
